Assay results from publication PMC8565065.
No constants are given. Whether binding was seen depends on the method and setting. In cells and extracts the contact can be indirect. Some results given as binding are weak or reduced against the parent protein; the word gives no strength. Sequences can lack the tags named with a protein.

Amino acid sequences for entries named in this document (tags omitted). Residues count along the entry.
UniProt P05067, residues 18-770: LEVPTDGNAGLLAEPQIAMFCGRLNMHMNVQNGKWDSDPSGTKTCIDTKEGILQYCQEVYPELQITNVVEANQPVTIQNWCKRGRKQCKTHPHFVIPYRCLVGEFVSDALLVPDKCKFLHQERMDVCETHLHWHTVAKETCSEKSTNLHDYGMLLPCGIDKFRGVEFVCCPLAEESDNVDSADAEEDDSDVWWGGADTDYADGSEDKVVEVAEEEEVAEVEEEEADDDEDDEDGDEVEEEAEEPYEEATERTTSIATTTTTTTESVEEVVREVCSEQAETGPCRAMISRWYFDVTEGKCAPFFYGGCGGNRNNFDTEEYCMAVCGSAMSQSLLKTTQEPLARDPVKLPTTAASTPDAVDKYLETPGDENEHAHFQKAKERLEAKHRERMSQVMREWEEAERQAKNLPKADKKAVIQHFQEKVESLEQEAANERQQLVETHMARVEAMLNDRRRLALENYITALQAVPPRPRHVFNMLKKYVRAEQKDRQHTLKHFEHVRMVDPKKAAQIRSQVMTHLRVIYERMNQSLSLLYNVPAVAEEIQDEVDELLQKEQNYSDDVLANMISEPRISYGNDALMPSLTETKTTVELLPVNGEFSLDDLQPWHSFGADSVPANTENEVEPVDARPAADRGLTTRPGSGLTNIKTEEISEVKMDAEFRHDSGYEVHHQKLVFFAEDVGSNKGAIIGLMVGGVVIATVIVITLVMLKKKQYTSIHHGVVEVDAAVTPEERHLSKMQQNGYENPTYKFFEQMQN

Target: wild-type human APP (APP770 isoform) stably overexpressed in CHO-PS70 cells (human) (UniProt P05067)
Assay: co-IP; extracts (50 μL) of CHO-PS70 cells transfected with LRP3-flag incubated 2.5 h at room temperature with magnetic beads coupled to an anti-C-terminal APP antibody; rabbit IgG as negative control; input, bound and unbound fractions blotted

binding: binds
B1: 3×FLAG-LRP3 (full-length human LRP3) in CHO-PS70 cells (receptor, UniProt O75074 37-770)
chain: VPALAACSGKLEQHTERRGVIYSPAWPLNYPPGTNCSWYIQGDRGDMITISFRNFDVEESHQCSLDWLLLGPAAPPRQEAFRLCGSAIPPAFISARDHVWIFFHSDASSSGQAQGFRLSYIRGKLGQASCQADEFRCDNGKCLPGPWQCNTVDECGDGSDEGNCSAPASEPPGSLCPGGTFPCSGARSTRCLPVERRCDGLQDCGDGSDEAGCPDLACGRRLGSFYGSFASPDLFGAARGPSDLHCTWLVDTQDSRRVLLQLELRLGYDDYVQVYEGLGERGDRLLQTLSYRSNHRPVSLEAAQGRLTVAYHARARSAGHGFNATYQVKGYCLPWEQPCGSSSDSDGGSLGDQGCFSEPQRCDGWWHCASGRDEQGCPACPPDQYPCEGGSGLCYTPADRCNNQKSCPDGADEKNCFSCQPGTFHCGTNLCIFETWRCDGQEDCQDGSDEHGCLAAVPRKVITAALIGSLVCGLLLVIALGCAFKLYSLRTQEYRAFETQMTRLEAEFVRREAPPSYGQLIAQGLIPPVEDFPVYSASQASVLQNLRTAMRRQMRRHASRRGPSRRRLGRLWNRLFHRPRAPRGQIPLLTAARPSQTVLGDGFLQPAPGAAPDPPAPLMDTGSTRAAGDRPPSAPGRAPEVGPSGPPLPSGLRDPECRPVDKDRKVCREPLVDGPAPADAPREPCSAQDPHPQVSTASSTLGPHSPEPLGVCRNPPPPCSPMLEASDDEALLVC
